According to patent US5763492A, “Methods for effecting memory enhancement mediated by non-steroidal sulfatase inhibitors” (Duguesne University of the Holy Ghost, priority 1996, dated 1998):

Tested on: scopolamine-induced amnesia in rats
Assay: Passive avoidance test (Gemini Avoidance System), crossover latency, scopolamine-induced amnesia
Assay type: in vivo, rat
Conditions: scopolamine 1 mg/Kg IP 30 min before acquisition trial; saline one hour before; saline control without scopolamine 583.8±16.2 sec

SMILES: CN1[C@@H]2C[C@@H](OC(=O)[C@H](CO)c3ccccc3)C[C@H]1[C@@H]1O[C@@H]12 [scopolamine, reference compound]
- retention latency 24 hours later: 21.1 ± 10.9 s
